Data as given in PubChem BioAssay AID651803 (National Center for Advancing Translational Sciences (NCATS), 2012).
Fewer than 10 of roughly 1,200 compounds were called active. Calls come from the whole dose curve; as a rule, active = well fitted curve in the direction sought with a large enough effect; inconclusive = small, poorly fitted or top-dose-only effect, or another doubt; inactive = no such curve, though single readings can be large or run the other way. This is one part of the list.

Amino acid sequences for entries named in this document (tags omitted). A change or cut given only in a name is not applied to a line headed by its entry.
UniProt P11308: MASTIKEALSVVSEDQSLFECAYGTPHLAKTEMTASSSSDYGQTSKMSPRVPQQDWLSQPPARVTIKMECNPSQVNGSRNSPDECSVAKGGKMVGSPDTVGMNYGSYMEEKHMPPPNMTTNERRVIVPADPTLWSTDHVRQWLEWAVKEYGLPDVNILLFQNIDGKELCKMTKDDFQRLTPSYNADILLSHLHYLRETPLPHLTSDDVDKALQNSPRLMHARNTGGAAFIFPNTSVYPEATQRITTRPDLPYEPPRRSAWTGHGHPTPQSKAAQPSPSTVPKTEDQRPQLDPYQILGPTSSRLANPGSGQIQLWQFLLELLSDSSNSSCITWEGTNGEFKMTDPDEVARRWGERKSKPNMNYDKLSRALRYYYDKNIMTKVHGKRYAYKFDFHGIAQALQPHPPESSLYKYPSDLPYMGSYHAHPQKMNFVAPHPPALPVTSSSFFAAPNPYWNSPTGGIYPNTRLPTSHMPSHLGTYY

Each compound was assayed against Transcriptional regulator ERG (Homo sapiens) (UniProt P11308) (assay: qHTS for Small Molecule Inhibitors of the ERG Ets/DNA interaction: TR assay against cherry picks). Settings: ERG Ets domain-DNA fluorescence polarization, Texas red probe; at 154 µM (top of the series).
How it was run: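 Polarization read sequentially for fluorescein (ex 480/em 535 nm) and Texas red (ex 555/em 632 nm) probes, 5 nM and 100 nM solutions, displaced from His-ERG Ets domain (1 uM solution), pH 7.5 Tris/KCl/EDTA/DTT buffer.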
Note: % of control where 0% means no effect.

Activity change, negative = inhibition, inactive:
OC(Cn1cnnc1)c1ccccc1 (stereo not drawn) 3.72%
CC1CCN(c2ccc(/C=N/n3nnnc3N)cc2[N+](=O)[O-])CC1 -2.44%
CCCn1c(=O)c(C(=O)NNS(=O)(=O)c2ccc(C)cc2)c(O)c2ccccc21 1.97%
Clc1ccc(-c2cc3ccccc3nc2N2CCOCC2)cc1 -6.53%
Cc1cccc(OCc2ccc(C(=O)N3CCOCC3)o2)c1 4.41%
Cc1ccc(NC(=S)NC(=O)c2cncc(Br)c2)cc1Cl 1.61%
c1ccc(Nc2ncnc3[nH]ncc23)cc1 0.617%
C=CCn1c(=O)c2c(nc(-c3ccc(S(=O)(=O)O)cc3)n2C)n(C)c1=O -8.95%
Cc1ccc(C(=O)NCC(=O)NCCCc2ccccc2)s1 -1.86%
CC(=O)Nc1ccc(CCCCc2ccc(NC(C)=O)cc2)cc1 -2.21%
N#Cc1c(N)sc(=S)c2c1CCCCC2 24.2%
COCCNC(=O)C(OC(=O)C1=Cc2ccccc2OC1)C(C)C (stereo not drawn) 5.8%
CN(C)N=Nc1ccc(S(=O)(=O)NC(Cc2ccccc2)C(=O)O)cc1 (stereo not drawn) 0.423%
O=C(C1CCN(Cc2ccc(F)cc2)CC1)N1CCN(C/C=C/c2ccccc2)CC1 -12.7%
COc1ccccc1/C=N\Nc1ccccc1[N+](=O)[O-] 1.57%
Cc1ccc(C(=O)N[C@H](C(=O)Nc2ccc(F)cc2)C(C)C)cc1 0.0324%
COc1cc(CNc2ccc(CNc3ncn[nH]3)cc2)ccc1OCC(=O)NC(C)(C)C 0.0386%
Cc1ccc(S(=O)(=O)N2CCC(C)CC2)c([N+](=O)[O-])c1 -15.2%
Cc1noc(C)c1COC(=O)C1CCN(C(=O)c2ccc(Cl)cc2)CC1 18.3%
COCCNC(=O)/C(C#N)=C/c1c(N2CCN(c3cccc(Cl)c3)CC2)nc2c(C)cccn2c1=O 4.98%
CCn1cc(C(=O)NCc2ccc(Cl)cc2)c(=O)c2cc(S(=O)(=O)N3CCOCC3)ccc21 -3.15%
CCn1c2ccccc2c2cc(NC(=O)COc3cc(C)ccc3C)ccc21 1.75%
CC(OC(=O)c1cc(=O)[nH]c2ccccc12)C(=O)NCc1ccccc1 (stereo not drawn) 13.8%
COc1ccc(OC)c2c1C(=O)c1ccccc1C2=O 63%
COc1ccc(-n2c(=O)c3c4c(sc3n(Cc3ccc(C(C)(C)C)cc3)c2=O)CCC4)c(OC)c1 -10.3%
O=C(Nc1ccccc1Cl)c1ccc(Cl)cc1Cl 3.08%
COc1ccc(NC(=O)COC(=O)C2CC(=O)N(c3ccc(C)cc3)C2)cc1 (stereo not drawn) 2.46%
COCCCNC(=O)c1cc2cc([N+](=O)[O-])cc(OC)c2oc1=O 2.21%
Cc1cc(C)nc(N2CCN(c3nnnn3-c3ccccc3)CC2)n1 -4.73%
C#C[C@]1(O)CC[C@H]2[C@@H]3CCC4=CC(=O)CC[C@@H]4[C@H]3CC[C@@]21CC 4.2%
COc1cc(/C=C/C(=O)OC(C)C(=O)c2ccccc2)cc(OC)c1OC (stereo not drawn) 10.8%
O=C(NCC(=O)N1CCCC(C(F)(F)F)C1)c1cccs1 (stereo not drawn) -10.4%
Nc1c(C(=O)NCc2ccc(Cl)cc2Cl)nnn1Cc1ccc(Br)cc1 -6.43%
COc1ccc(OCC(=O)Nc2cc(-c3ccccc3F)nn2-c2ccccc2)cc1 2.5%
O=C(COc1ccc(-c2ccccc2)cc1)N1CCN(C(=O)c2cccs2)CC1 -5.14%
CCOC(=O)c1cn(-c2nc(-c3ccc(Cl)c(Cl)c3)cs2)c2c(F)c(N3CCOCC3)c(F)cc2c1=O -8.86%
Cc1cccc(Cc2c(C)nc3nc(SCc4ccccc4Cl)nn3c2C)c1 -6.79%
O=C(NCCN1CCN(c2ccccc2)CC1)c1cccc(Br)c1 -10.5%
Cn1c(=O)oc2cc(S(=O)(=O)N3CCN(c4ccccc4F)CC3)ccc21 6.62%
COc1ccccc1C(C)NC(=O)c1cc(S(=O)(=O)N2CCCCC2)ccc1C (stereo not drawn) -4.33%
Cc1ccnc(NC(=O)c2cccc(S(=O)(=O)Nc3ccc(C)cc3C)c2)c1 6.64%
CCOC(=O)c1c(C)[nH]c(C(=O)COC(=O)CNC(=O)c2ccc(Cl)cc2Cl)c1C 15.3%
CC(=O)C(c1ccccc1)C(c1ccccc1)C(C)[N+](=O)[O-] (stereo not drawn) 6.42%
COC(=O)[C@@]1(C)[C@H]2C(=O)N(Cc3ccccc3)C(=O)[C@H]2[C@H]2CN(C)C(=NC3CCCCC3)N21 5.6%
COc1ccc(OCCN2CCN(C(=O)c3ccc(OC(F)F)c(OC)c3)CC2)cc1 0.86%
CCNc1nc(NC(C)(C)C)nc(N2CCCCC2)n1 -0.306%
CCc1ccnc(NC(=O)Nc2ccc(OCc3ccccc3)cc2)c1 -11%
CCc1cccc(NC(=O)C2CCCN(S(=O)(=O)c3ccc4[nH]c(=O)ccc4c3)C2)c1 (stereo not drawn) 0.67%
Cc1ccc(C)c(S(=O)(=O)N2CC(=O)N(CCc3ccccc3)C(=O)C2)c1 -0.11%
Cc1[nH]c(=O)[nH]c(=O)c1/C=N/NC(=O)[C@H](C)N 2.01%
COc1ccc(OC)c(NS(=O)(=O)c2cc3c4c(c2)CCN4C(=O)CC3)c1 -1.42%
CCOC(=O)C1=NN(C(=O)COc2ccccc2)C(O)(c2ccc(Cl)cc2)C1 (stereo not drawn) -7.48%
Cc1cc(C)nc(NC(=O)c2ccc(Cl)cc2Cl)n1 9.79%
O=C(NC(=S)Nc1cccnc1)c1cc2ccccc2o1 0.466%
O=C(Nc1ccc2c(c1)OCO2)N1CCN(c2ccccc2)CC1 -6.55%
O=C(Nc1ccccc1Br)c1ccccc1-c1ccccc1 6.9%
O=C(CSc1nnc(-c2cccnc2)o1)Nc1cccc(Cl)c1 -10.9%
CC(C)(C)c1ccc(OCC(=O)Nc2cccc(S(=O)(=O)NC3=NCCCCC3)c2)cc1 4.64%

Structural class, the entries above containing a furan ring, fused or not (two)
Activity change, negative = inhibition, inactive:
Cc1cccc(OCc2ccc(C(=O)N3CCOCC3)o2)c1 4.41%
O=C(NC(=S)Nc1cccnc1)c1cc2ccccc2o1 0.466%
